No constants are given. Whether binding was seen depends on the method and setting. In cells and extracts the contact can be indirect. Some results given as binding are weak or reduced against the parent protein; the word gives no strength.
Molecular target: Nanog^BiD (UniProt Q62280)
Assay: co-IP; whole cell lysate in NP-40 buffer (50 mM Tris pH 7.4, 200 mM NaCl, 1% NP40) incubated overnight at 4 °C with anti-FLAG M2 magnetic beads for 3xFLAG-tagged Nanog^WT or Nanog^BiD; western blot of SMARCC1, SMARCA4, FLAG, NANOG

Chains of the proteins cited; added tags and fusions are not shown. Lines headed by an entry give the natural chain unless they say otherwise; changes in a name come on top.
UniProt Q62280: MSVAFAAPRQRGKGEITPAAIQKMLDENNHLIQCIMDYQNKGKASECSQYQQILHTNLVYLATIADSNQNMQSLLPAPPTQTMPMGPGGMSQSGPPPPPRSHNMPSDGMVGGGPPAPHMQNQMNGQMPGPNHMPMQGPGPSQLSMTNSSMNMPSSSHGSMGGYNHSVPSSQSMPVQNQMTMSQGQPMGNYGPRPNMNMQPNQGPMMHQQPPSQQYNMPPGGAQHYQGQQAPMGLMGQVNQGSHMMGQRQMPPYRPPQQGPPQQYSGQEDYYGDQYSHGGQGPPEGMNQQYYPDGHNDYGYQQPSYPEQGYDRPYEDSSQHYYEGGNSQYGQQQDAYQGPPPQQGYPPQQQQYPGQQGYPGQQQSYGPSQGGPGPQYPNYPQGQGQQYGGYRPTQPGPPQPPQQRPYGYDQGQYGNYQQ
UniProt P97496: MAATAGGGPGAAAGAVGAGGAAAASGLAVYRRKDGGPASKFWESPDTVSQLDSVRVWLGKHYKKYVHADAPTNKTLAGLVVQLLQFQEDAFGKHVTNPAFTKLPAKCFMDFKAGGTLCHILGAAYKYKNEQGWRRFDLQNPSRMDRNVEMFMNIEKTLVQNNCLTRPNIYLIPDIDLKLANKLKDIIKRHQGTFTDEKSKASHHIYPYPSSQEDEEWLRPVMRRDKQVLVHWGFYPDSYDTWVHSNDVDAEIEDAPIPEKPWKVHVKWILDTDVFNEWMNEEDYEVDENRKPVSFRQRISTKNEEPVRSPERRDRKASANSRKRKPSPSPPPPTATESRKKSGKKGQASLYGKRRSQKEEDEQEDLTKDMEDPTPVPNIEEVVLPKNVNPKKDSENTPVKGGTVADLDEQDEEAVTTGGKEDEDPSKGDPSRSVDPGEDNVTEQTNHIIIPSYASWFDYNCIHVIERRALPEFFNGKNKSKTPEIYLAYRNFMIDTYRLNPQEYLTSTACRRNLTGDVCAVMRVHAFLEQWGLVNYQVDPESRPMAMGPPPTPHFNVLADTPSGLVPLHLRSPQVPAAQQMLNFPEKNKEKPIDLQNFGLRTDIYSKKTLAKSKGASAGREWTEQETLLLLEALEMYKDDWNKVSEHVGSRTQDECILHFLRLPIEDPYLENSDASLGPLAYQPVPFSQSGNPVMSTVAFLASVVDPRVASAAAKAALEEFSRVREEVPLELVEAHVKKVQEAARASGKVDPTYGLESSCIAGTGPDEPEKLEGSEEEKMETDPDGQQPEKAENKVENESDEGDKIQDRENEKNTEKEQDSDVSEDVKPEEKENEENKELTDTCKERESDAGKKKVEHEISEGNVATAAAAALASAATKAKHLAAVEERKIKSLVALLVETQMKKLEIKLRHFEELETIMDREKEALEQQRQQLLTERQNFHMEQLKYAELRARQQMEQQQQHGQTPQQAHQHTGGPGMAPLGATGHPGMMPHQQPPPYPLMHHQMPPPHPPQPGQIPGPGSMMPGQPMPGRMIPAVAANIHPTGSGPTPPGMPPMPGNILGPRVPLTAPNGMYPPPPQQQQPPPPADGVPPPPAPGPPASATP
UniProt Q3TKT4: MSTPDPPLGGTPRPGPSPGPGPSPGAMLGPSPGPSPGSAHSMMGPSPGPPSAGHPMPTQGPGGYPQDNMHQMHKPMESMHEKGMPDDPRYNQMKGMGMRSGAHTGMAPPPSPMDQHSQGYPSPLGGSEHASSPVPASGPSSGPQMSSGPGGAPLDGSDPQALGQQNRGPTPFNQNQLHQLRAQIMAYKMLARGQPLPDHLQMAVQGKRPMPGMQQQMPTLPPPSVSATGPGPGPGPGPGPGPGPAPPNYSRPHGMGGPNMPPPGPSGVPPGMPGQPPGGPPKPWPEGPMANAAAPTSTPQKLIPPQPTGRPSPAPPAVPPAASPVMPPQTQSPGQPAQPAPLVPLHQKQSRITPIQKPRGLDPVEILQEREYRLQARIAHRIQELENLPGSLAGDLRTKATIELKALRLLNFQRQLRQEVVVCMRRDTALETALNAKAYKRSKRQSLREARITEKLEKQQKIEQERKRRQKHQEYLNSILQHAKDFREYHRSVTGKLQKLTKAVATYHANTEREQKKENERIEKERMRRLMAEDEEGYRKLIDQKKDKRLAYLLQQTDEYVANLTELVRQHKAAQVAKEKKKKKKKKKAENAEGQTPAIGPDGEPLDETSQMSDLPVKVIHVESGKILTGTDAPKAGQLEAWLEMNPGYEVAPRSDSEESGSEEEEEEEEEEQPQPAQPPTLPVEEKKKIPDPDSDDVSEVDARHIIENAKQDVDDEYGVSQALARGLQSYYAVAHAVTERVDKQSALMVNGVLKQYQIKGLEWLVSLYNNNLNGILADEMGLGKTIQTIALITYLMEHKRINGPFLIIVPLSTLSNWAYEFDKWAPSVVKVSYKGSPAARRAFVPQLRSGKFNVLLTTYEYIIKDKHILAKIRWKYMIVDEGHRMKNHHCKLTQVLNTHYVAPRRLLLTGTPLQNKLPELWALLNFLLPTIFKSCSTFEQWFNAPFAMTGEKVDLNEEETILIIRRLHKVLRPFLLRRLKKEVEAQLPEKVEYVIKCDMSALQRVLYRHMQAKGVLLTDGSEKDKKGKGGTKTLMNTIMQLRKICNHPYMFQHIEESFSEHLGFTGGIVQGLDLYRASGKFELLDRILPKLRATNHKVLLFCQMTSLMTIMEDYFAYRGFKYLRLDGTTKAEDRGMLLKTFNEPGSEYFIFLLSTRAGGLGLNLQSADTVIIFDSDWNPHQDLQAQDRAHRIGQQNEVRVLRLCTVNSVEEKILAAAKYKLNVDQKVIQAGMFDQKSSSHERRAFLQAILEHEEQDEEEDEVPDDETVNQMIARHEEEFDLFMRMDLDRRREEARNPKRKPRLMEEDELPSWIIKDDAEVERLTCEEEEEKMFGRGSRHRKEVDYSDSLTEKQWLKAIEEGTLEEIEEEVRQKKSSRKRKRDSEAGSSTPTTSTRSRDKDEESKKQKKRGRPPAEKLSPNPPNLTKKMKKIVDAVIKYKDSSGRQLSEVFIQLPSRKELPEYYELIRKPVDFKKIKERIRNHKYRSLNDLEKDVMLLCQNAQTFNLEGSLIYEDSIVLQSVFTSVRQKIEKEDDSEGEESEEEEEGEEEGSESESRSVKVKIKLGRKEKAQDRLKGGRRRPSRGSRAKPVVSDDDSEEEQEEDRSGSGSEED

| binding | Substance |
| --- | --- |
| binds | SMARCC1 (from UniProt P97496 1-1104) |
| binds | SMARCA4/BRG1 (from UniProt Q3TKT4 1-1613) |
